From the supplement of paper PMC10849652
This is one part of the list.

Amino acid sequences for entries named in this document (tags omitted). A change or cut given only in a name is not applied to a line headed by its entry.
UniProt Q01650: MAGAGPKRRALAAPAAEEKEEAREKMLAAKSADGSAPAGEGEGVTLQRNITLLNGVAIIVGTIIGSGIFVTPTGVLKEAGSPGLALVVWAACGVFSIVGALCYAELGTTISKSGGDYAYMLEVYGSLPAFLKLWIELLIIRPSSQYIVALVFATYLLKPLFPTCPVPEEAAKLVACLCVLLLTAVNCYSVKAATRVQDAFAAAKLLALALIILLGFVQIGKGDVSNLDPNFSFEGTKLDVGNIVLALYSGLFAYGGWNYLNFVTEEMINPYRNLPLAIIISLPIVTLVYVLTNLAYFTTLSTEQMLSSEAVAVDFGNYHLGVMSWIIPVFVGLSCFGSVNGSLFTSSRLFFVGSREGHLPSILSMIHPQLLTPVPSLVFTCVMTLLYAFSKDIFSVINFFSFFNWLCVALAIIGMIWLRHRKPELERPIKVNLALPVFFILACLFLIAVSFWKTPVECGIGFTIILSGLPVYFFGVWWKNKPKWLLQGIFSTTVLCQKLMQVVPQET
UniProt Q15758: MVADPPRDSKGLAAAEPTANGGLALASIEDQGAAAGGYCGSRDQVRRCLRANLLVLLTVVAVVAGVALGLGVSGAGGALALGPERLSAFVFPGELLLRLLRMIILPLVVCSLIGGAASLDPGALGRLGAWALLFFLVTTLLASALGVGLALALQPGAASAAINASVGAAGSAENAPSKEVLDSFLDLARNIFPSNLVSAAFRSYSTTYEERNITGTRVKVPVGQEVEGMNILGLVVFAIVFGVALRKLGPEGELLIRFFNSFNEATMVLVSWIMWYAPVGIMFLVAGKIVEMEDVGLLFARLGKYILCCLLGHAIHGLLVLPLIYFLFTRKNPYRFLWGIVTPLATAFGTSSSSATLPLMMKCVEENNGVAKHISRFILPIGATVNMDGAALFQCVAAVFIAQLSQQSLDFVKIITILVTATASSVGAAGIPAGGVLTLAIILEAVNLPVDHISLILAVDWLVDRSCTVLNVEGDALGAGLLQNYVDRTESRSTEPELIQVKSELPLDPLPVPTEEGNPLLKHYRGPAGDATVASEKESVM
UniProt P08195: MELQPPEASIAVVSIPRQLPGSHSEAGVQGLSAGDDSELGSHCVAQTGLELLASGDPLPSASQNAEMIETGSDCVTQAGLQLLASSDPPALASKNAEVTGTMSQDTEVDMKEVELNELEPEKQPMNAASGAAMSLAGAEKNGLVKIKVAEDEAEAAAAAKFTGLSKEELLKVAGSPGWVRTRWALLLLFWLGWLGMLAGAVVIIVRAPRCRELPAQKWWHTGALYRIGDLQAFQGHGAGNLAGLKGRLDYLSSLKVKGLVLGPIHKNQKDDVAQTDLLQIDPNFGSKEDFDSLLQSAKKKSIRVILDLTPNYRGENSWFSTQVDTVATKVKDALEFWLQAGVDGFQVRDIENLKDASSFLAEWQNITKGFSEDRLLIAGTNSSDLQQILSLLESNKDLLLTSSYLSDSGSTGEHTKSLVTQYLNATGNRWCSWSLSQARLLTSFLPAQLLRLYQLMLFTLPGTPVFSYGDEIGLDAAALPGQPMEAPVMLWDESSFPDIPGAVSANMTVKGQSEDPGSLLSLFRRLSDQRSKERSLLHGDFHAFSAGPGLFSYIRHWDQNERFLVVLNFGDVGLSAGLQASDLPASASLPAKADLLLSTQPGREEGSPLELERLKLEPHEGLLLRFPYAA
UniProt Q96H78: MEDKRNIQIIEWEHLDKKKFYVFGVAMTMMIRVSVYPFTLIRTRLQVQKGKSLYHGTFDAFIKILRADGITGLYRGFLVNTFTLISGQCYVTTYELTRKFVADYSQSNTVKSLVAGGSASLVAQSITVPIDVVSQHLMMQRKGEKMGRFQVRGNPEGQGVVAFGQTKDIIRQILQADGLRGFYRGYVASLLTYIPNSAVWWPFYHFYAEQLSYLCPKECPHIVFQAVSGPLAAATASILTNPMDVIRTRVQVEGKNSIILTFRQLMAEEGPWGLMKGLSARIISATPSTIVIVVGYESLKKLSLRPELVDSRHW
UniProt Q9BSK2: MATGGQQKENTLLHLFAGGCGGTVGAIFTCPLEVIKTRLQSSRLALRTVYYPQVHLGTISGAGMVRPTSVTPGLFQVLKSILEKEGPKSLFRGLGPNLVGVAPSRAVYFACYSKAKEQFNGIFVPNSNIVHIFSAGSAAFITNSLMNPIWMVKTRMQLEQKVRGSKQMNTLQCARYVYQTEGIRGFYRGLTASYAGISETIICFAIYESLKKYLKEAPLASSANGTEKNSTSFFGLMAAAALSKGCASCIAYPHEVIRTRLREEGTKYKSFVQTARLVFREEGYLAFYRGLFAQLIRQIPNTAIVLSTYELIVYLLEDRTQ
UniProt Q9Y6M7: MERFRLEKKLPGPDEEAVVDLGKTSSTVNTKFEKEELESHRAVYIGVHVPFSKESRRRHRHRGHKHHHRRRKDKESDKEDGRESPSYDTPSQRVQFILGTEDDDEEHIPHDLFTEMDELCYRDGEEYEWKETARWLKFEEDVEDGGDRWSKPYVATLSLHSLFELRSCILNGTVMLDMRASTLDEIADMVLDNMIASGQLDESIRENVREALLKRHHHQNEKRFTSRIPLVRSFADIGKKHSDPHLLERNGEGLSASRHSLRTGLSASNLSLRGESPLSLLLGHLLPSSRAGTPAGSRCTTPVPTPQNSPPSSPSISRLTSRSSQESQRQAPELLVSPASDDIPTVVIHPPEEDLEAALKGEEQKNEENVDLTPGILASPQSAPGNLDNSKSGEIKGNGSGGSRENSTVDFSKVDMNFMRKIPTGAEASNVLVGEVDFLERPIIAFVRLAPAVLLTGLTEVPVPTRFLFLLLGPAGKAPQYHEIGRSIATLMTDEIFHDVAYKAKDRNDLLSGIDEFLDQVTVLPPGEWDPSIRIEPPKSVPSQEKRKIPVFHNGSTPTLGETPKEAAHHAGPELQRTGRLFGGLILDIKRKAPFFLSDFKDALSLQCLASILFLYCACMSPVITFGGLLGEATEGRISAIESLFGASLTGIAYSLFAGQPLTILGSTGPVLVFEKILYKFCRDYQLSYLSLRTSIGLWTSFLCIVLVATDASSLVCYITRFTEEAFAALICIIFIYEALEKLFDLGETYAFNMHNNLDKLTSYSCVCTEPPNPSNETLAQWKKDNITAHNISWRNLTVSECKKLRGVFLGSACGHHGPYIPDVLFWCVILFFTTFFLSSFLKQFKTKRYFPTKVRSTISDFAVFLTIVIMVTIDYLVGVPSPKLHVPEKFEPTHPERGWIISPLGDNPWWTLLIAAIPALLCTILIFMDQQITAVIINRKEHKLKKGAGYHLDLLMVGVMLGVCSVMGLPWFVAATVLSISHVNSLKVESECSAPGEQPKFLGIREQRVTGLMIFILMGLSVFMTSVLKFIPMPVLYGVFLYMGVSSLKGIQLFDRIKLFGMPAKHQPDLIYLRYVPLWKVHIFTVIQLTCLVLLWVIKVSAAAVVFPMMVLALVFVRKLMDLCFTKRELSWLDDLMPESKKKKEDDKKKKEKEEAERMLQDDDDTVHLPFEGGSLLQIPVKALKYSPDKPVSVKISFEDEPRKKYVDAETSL
UniProt Q9H0C2: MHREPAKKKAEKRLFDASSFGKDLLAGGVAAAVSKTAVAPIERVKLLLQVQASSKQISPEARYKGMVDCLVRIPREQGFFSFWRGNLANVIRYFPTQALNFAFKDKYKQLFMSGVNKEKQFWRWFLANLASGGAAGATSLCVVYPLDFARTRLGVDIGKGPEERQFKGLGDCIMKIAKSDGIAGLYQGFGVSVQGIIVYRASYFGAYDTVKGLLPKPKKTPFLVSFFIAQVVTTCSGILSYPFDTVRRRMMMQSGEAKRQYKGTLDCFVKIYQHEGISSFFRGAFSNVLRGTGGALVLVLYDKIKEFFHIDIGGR
UniProt Q9H936: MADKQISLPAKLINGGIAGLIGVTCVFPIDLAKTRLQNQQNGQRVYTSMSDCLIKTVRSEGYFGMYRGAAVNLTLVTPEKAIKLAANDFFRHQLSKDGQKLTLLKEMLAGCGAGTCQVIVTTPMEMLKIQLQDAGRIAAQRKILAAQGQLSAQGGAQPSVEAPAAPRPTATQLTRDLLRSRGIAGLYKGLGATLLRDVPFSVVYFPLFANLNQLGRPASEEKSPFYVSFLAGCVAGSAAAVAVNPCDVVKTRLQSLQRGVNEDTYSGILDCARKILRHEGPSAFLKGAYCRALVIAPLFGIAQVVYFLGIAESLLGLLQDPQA
UniProt P78381: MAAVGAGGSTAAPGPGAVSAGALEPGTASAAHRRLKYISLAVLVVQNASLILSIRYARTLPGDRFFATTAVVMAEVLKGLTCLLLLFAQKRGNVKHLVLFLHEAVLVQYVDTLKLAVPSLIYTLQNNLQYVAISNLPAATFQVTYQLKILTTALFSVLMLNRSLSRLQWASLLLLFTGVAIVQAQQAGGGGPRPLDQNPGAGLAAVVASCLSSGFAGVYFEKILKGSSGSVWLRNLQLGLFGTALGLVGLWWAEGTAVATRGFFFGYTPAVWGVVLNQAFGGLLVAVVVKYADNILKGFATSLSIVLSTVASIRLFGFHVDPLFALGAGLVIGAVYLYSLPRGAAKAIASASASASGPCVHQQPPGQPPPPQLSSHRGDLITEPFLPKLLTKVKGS
UniProt O60779: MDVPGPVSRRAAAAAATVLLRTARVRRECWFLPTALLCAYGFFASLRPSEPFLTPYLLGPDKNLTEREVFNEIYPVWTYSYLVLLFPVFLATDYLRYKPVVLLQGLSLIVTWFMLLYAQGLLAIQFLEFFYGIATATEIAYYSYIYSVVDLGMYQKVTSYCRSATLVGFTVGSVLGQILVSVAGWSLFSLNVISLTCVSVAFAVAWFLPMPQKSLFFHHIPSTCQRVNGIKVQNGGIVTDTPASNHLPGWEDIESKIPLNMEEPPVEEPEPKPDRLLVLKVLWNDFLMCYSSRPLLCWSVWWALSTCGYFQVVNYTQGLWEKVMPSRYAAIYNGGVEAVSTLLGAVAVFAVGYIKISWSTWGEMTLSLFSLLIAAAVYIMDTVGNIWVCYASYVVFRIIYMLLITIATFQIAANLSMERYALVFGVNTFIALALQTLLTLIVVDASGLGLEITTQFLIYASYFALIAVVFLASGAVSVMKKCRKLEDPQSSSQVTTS
UniProt Q6PML9: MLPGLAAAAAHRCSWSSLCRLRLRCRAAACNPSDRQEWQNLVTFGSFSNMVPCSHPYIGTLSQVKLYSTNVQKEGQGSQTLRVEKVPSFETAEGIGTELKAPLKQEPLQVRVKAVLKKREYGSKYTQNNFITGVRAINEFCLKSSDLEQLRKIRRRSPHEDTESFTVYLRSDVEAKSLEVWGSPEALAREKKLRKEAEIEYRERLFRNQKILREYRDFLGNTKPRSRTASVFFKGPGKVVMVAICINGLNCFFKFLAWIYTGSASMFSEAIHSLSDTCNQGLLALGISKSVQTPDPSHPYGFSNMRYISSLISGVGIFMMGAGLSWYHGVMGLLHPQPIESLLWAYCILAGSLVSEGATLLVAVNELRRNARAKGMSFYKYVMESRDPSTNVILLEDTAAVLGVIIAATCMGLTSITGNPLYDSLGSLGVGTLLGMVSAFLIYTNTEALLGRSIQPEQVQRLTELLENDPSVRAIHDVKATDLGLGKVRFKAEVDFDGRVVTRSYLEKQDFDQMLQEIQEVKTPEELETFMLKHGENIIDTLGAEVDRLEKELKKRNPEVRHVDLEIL
UniProt Q02978: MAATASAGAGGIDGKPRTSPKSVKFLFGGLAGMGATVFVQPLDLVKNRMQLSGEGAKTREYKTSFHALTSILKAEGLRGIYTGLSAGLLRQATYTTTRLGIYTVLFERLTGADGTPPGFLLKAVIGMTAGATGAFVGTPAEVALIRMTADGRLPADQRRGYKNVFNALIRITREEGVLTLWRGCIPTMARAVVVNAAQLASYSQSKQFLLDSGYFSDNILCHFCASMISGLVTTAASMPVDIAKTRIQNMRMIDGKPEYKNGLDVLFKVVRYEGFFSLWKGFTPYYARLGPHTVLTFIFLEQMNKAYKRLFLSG
UniProt Q96AG3: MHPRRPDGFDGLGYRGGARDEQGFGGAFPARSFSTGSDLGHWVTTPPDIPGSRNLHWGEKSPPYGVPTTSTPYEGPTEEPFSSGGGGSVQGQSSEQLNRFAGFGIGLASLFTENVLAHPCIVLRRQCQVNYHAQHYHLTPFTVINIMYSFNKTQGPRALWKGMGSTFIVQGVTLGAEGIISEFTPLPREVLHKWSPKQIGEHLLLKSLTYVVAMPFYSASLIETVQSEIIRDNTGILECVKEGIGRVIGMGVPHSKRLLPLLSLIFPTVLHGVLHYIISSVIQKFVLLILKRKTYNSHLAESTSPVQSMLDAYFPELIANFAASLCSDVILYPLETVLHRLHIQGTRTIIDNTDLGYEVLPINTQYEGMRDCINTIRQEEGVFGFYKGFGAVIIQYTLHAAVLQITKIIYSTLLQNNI

Key:
Experiment in all cases: log2 fold change, soluble protein after heating vs DMSO (PISA); higher = thermal stabilisation; K562 cells, 10 uM, 30 min; active = over 0.2 and 3.5 SD of the protein, either way, in both replicates (recomputed)
[1] = compound: CS(=O)(=O)c1ccc(-c2cnc(N)c(C(=O)Nc3ccccc3)n2)cc1
Procedure, shortened: (§1)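 Thermal stability values are relative to control samples and come from duplicates. They are expressed as log2 fold changes. For measurement, K562 cells (2×10^6 cells/mL) received 10 μM compound for 30 min, and aliquots were heated for 3 min over 48°C-58°C, pooled, and extracted at 4°C in PBS with 0.5% NP-40. Soluble protein, the supernatant after 21,000xg for 90 min, was quantified by TMTpro 16plex LC-MS/MS with equalised channel sums.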

crizotinib = compound: C[C@@H](Oc1cc(-c2cnn(C3CCNCC3)c2)cnc1N)c1c(Cl)ccc(F)c1Cl [crizotinib]
Procedure, shortened: as §1

[2] = compound: C[C@@H]1COCCN1C2=NC(=NC(=C2)C3(CC3)S(=O)(=O)C)C4=C5C=CNC5=CC=C4
Procedure, shortened: as §1

[3] = compound: C[C@H](C1=CC=C(C=C1)C(=O)NC2=C3C=CNC3=NC=C2)N
Procedure, shortened: as §1

duvelisib = compound: C[C@H](Nc1ncnc2nc[nH]c12)c1cc2cccc(Cl)c2c(=O)n1-c1ccccc1 [duvelisib]
Procedure, shortened: as §1

gandotinib = compound: Cc1cc(Nc2cc(CN3CCOCC3)c3nc(C)c(Cc4ccc(Cl)cc4F)n3n2)n[nH]1 [gandotinib]
Procedure, shortened: as §1

tozasertib = compound: Cc1cc(Nc2cc(N3CCN(C)CC3)nc(Sc3ccc(NC(=O)C4CC4)cc3)n2)n[nH]1 [tozasertib]
Procedure, shortened: as §1

[4] = compound: Cc1cc(SCc2sc(-c3ccc(C(F)(F)F)cc3)nc2C)ccc1OCC(=O)O
Procedure, shortened: as §1

doramapimod = compound: Cc1ccc(-n2nc(C(C)(C)C)cc2NC(=O)Nc2ccc(OCCN3CCOCC3)c3ccccc23)cc1 [doramapimod]
Procedure, shortened: as §1

ispinesib = compound: Cc1ccc(C(=O)N(CCCN)[C@@H](c2nc3cc(Cl)ccc3c(=O)n2Cc2ccccc2)C(C)C)cc1 [ispinesib]
Procedure, shortened: as §1

bafetinib = compound: Cc1ccc(NC(=O)c2ccc(CN3CC[C@H](N(C)C)C3)c(C(F)(F)F)c2)cc1Nc1nccc(-c2cncnc2)n1 [bafetinib]
Procedure, shortened: as §1

[5] = compound: Cc1cccc(CC(=O)N2CCc3c2ccc(-c2cn(C)c4ncnc(N)c24)c3F)n1
Procedure, shortened: as §1

nilotinib = compound: Cc1cn(-c2cc(NC(=O)c3ccc(C)c(Nc4nccc(-c5cccnc5)n4)c3)cc(C(F)(F)F)c2)cn1 [nilotinib]
Procedure, shortened: as §1

[6] = compound: Cc1nc(Nc2n[nH]c3c2CN(C(=O)N[C@H](CN(C)C)c2ccccc2)C3(C)C)c2sccc2n1
Procedure, shortened: as §1

dasatinib = compound: Cc1nc(Nc2ncc(C(=O)Nc3c(C)cccc3Cl)s2)cc(N2CCN(CCO)CC2)n1 [dasatinib]
Procedure, shortened: as §1

[7] = compound: Cc1ncc(-c2ccnc(Nc3ccc(S(C)(=O)=O)cc3)n2)n1C(C)C
Procedure, shortened: as §1

[8] = compound: Cn1cc(-c2ccc3c(c2)CCN3C(=O)Cc2cccc(C(F)(F)F)c2)c2c(N)ncnc21
Procedure, shortened: as §1

[9] = compound: Cn1cc(-c2ccc3nnc(C(F)(F)c4ccc5ncccc5c4)n3n2)cn1
Procedure, shortened: as §1

tipifarnib = compound: Cn1cncc1[C@@](N)(c1ccc(Cl)cc1)c1ccc2c(c1)c(-c1cccc(Cl)c1)cc(=O)n2C [tipifarnib]
Procedure, shortened: as §1

mubritinib = compound: FC(F)(F)c1ccc(/C=C/c2nc(COc3ccc(CCCCn4ccnn4)cc3)co2)cc1 [mubritinib]
Procedure, shortened: as §1

Measured: log2 fold change

SLC7A5 (UniProt Q01650)
inactive: [1] -0.023 | crizotinib 0.062 | [2] 0.039 | [3] -0.161 | duvelisib 0.05 | gandotinib -0.065 | tozasertib 0.004 | [4] -0.035 | doramapimod 0.027 | ispinesib 0.03 | bafetinib 0.026 | [5] -0.017 | nilotinib 0.064 | [6] -0.028 | dasatinib 0.05 | [7] 0.003 | [8] 0.053 | [9] 0 | tipifarnib -0.034 | mubritinib 0.031

SLC1A5 (UniProt Q15758)
inactive: [1] 0.026 | crizotinib 0.13 | [2] 0.072 | [3] -0.186 | gandotinib -0.105 | [4] -0.091 | doramapimod -0.007 | ispinesib 0.167 | bafetinib 0.041 | [5] 0.004 | nilotinib 0.067 | [6] 0.023 | dasatinib 0.023 | [7] 0.014 | [8] 0.035 | [9] -0.032 | tipifarnib 0.026 | mubritinib 0.052

SLC3A2 isoform 3 (UniProt P08195)
inactive: [1] 0.008 | crizotinib 0.074 | [2] 0.047 | [3] -0.133 | duvelisib 0.026 | gandotinib 0.021 | tozasertib -0.039 | [4] -0.045 | doramapimod 0.003 | ispinesib 0.156 | bafetinib -0.017 | [5] 0.011 | nilotinib 0.048 | [6] 0 | dasatinib 0.017 | [7] 0.001 | [8] 0.038 | [9] -0.04 | tipifarnib -0.019 | mubritinib 0.016

SLC25A44 (UniProt Q96H78)
inactive: [1] -0.006 | crizotinib 0.066 | [2] -0.044 | [3] -0.01 | duvelisib 0.008 | gandotinib -0.068 | tozasertib -0.024 | [4] 0.017 | doramapimod -0.005 | bafetinib 0.029 | [5] 0.048 | nilotinib -0.037 | [6] -0.028 | dasatinib 0.05 | [7] 0.026 | [8] 0.086 | tipifarnib 0.032 | mubritinib 0.036

SLC25A33 (UniProt Q9BSK2)
inactive: [1] -0.034 | crizotinib 0.014 | [2] 0.058 | [3] -0.028 | duvelisib -0.087 | gandotinib -0.016 | tozasertib -0.035 | [4] -0.057 | doramapimod 0.044 | ispinesib -0.134 | bafetinib -0.008 | [5] 0.025 | nilotinib -0.026 | [6] 0.035 | dasatinib -0.017 | [7] -0.01 | [8] -0.021 | [9] 0.029 | tipifarnib 0.061 | mubritinib 0.026

SLC4A7 isoform 7 (UniProt Q9Y6M7)
inactive: [1] 0.002 | crizotinib 0 | [2] 0.02 | [3] 0.131 | duvelisib 0.015 | tozasertib -0.06 | [4] -0.076 | doramapimod 0.123 | ispinesib 0.101 | bafetinib 0.006 | nilotinib 0.296 | [6] -0.153 | dasatinib -0.043 | [7] -0.228 | [8] -0.103 | [9] 0.016 | tipifarnib -0.043 | mubritinib -0.067

SLC25A31 (UniProt Q9H0C2)
inactive: [1] -0.038 | crizotinib 0.057 | [2] -0.02 | [3] -0.107 | duvelisib 0.004 | gandotinib -0.012 | tozasertib 0.007 | [4] -0.026 | doramapimod -0.109 | ispinesib 0.065 | bafetinib -0.061 | [5] -0.004 | nilotinib -0.002 | [6] 0.01 | dasatinib 0.041 | [7] -0.02 | [8] 0.042 | [9] 0.013 | tipifarnib -0.009 | mubritinib 0.02

SLC25A22 (UniProt Q9H936)
inactive: [1] -0.02 | crizotinib 0.079 | [2] 0.02 | [3] -0.06 | duvelisib 0.021 | gandotinib 0.031 | tozasertib -0.051 | [4] -0.046 | doramapimod -0.028 | ispinesib 0.02 | bafetinib -0.048 | [5] -0.077 | nilotinib -0.005 | [6] 0.039 | dasatinib 0.033 | [7] -0.02 | [8] -0.024 | [9] 0.021 | tipifarnib 0.015 | mubritinib 0.022

SLC35A2 isoform 4 (UniProt P78381)
inactive: [1] 0.016 | crizotinib 0.033 | [2] 0.114 | [3] -0.069 | duvelisib 0.038 | gandotinib -0.02 | tozasertib -0.26 | [4] 0.035 | doramapimod 0.044 | ispinesib 0.026 | bafetinib -0.047 | [5] -0.145 | nilotinib 0.085 | [6] 0.003 | dasatinib -0.214 | [7] -0.04 | [8] 0.061 | [9] -0.04 | tipifarnib 0.08 | mubritinib 0.026

SLC19A2 (UniProt O60779)
inactive: [1] -0.148 | crizotinib 0.166 | [2] -0.281 | [3] -0.232 | duvelisib -0.258 | tozasertib 0.027 | [4] -0.075 | doramapimod -0.067 | ispinesib 0.057 | nilotinib 0.209 | [6] -0.114 | dasatinib -0.006 | [7] -0.108 | [8] -0.239 | [9] -0.115 | tipifarnib 0.006

Two successive entries from above, for reference:
SLC35A2 isoform 4 (UniProt P78381)
inactive: [1] 0.016 | crizotinib 0.033 | [2] 0.114 | [3] -0.069 | duvelisib 0.038 | gandotinib -0.02 | tozasertib -0.26 | [4] 0.035 | doramapimod 0.044 | ispinesib 0.026 | bafetinib -0.047 | [5] -0.145 | nilotinib 0.085 | [6] 0.003 | dasatinib -0.214 | [7] -0.04 | [8] 0.061 | [9] -0.04 | tipifarnib 0.08 | mubritinib 0.026

SLC19A2 (UniProt O60779)
inactive: [1] -0.148 | crizotinib 0.166 | [2] -0.281 | [3] -0.232 | duvelisib -0.258 | tozasertib 0.027 | [4] -0.075 | doramapimod -0.067 | ispinesib 0.057 | nilotinib 0.209 | [6] -0.114 | dasatinib -0.006 | [7] -0.108 | [8] -0.239 | [9] -0.115 | tipifarnib 0.006

(list continues)

SLC30A9 (UniProt Q6PML9)
inactive: [1] 0.099 | crizotinib 0.016 | [2] 0.057 | [3] -0.094 | duvelisib 0.108 | gandotinib 0.048 | tozasertib -0.028 | [4] -0.015 | doramapimod -0.028 | ispinesib -0.092 | bafetinib -0.023 | [5] -0.023 | nilotinib 0.012 | [6] -0.02 | dasatinib -0.129 | [7] -0.031 | [8] 0.063 | [9] -0.106 | tipifarnib 0.02 | mubritinib -0.02

SLC25A25 isoform 3 (UniProt Q6KCM7)
inactive: [1] -0.027 | crizotinib 0.007 | [2] 0.001 | [3] -0.028 | duvelisib 0.023 | gandotinib -0.059 | tozasertib -0.01 | [4] -0.02 | doramapimod 0.004 | ispinesib -0.004 | bafetinib -0.022 | [5] -0.02 | nilotinib -0.009 | [6] 0.024 | dasatinib 0.018 | [7] -0.016 | [8] 0.063 | [9] -0.008 | tipifarnib 0.006 | mubritinib 0.011

SLC25A11 (UniProt Q02978)
inactive: [1] -0.015 | crizotinib 0.042 | [2] 0.012 | [3] -0.046 | duvelisib 0 | gandotinib 0.013 | tozasertib -0.022 | [4] -0.034 | doramapimod -0.03 | ispinesib 0.005 | bafetinib -0.053 | [5] 0.033 | nilotinib 0.016 | [6] -0.029 | dasatinib 0.056 | [7] -0.028 | [8] 0.034 | [9] -0.003 | tipifarnib -0.009 | mubritinib 0.034

SLC25A46 (UniProt Q96AG3)
inactive: [1] 0.05 | crizotinib 0.13 | [2] 0.035 | [3] 0.008 | duvelisib 0.124 | gandotinib -0.06 | tozasertib 0.05 | [4] -0.055 | doramapimod -0.046 | ispinesib -0.042 | bafetinib -0.025 | [5] -0.014 | nilotinib 0.012 | [6] 0 | dasatinib 0.098 | [7] -0.012 | [8] 0.023 | [9] -0.005 | tipifarnib 0.011 | mubritinib 0.075

SLC38A10 (UniProt Q9HBR0)
inactive: [1] 0.026 | crizotinib -0.012 | [2] 0.069 | [3] -0.034 | duvelisib -0.018 | gandotinib 0.04 | tozasertib -0.009 | [4] -0.074 | doramapimod 0.117 | ispinesib -0.032 | bafetinib -0.013 | [5] -0.03 | nilotinib -0.012 | [6] -0.011 | dasatinib 0.085 | [7] 0.023 | [8] 0 | [9] 0.007 | tipifarnib -0.04 | mubritinib 0.114

SLC25A1 (UniProt P53007)
inactive: [1] 0.011 | crizotinib 0.051 | [2] 0.036 | [3] -0.051 | duvelisib -0.041 | gandotinib 0.004 | tozasertib -0.015 | [4] -0.002 | doramapimod -0.015 | ispinesib 0.045 | bafetinib -0.033 | [5] 0.042 | nilotinib -0.044 | [6] 0.029 | dasatinib 0.035 | [7] -0.013 | [8] 0.003 | [9] -0.017 | tipifarnib -0.016 | mubritinib 0.001
